In the supplement of paper PMC10849652:
The other results are listed elsewhere or left out.

Amino acid sequences for entries named in this document (tags omitted). A change or cut given only in a name is not applied to a line headed by its entry.
UniProt O14957: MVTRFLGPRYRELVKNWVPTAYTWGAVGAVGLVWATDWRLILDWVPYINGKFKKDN
UniProt P31930: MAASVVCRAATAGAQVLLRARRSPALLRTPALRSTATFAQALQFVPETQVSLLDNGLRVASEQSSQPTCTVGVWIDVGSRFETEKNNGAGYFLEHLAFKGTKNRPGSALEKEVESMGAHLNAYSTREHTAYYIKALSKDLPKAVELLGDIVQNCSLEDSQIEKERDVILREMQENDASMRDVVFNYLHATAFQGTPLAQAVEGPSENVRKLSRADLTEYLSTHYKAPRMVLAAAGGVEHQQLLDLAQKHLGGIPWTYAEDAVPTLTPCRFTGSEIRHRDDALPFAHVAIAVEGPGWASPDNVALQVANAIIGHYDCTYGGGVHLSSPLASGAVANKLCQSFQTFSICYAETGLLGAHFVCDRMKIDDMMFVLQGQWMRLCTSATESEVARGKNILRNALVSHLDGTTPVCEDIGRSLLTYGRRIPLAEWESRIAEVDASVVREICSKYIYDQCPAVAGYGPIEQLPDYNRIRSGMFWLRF
UniProt Q6PHR2: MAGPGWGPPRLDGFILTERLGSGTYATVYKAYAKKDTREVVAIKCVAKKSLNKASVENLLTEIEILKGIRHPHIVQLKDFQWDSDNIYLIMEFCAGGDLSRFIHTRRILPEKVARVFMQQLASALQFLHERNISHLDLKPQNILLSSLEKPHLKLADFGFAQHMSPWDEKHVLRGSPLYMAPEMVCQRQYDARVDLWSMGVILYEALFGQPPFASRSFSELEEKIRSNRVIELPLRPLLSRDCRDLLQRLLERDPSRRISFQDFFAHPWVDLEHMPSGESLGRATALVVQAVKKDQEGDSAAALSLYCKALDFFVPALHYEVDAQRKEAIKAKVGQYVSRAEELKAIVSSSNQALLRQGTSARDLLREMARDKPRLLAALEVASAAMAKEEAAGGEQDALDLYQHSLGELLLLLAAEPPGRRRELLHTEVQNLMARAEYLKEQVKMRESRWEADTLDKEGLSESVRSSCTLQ
UniProt P50552: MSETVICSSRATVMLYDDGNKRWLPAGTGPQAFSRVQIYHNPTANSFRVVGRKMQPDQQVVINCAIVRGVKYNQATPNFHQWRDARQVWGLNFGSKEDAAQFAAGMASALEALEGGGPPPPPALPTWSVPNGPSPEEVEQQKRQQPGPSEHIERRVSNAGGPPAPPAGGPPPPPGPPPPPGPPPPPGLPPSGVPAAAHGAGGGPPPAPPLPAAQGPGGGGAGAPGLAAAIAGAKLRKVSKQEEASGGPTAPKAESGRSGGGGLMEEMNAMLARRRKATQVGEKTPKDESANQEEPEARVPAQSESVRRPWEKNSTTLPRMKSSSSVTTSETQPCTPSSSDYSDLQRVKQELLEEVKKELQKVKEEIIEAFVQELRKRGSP
UniProt Q16851: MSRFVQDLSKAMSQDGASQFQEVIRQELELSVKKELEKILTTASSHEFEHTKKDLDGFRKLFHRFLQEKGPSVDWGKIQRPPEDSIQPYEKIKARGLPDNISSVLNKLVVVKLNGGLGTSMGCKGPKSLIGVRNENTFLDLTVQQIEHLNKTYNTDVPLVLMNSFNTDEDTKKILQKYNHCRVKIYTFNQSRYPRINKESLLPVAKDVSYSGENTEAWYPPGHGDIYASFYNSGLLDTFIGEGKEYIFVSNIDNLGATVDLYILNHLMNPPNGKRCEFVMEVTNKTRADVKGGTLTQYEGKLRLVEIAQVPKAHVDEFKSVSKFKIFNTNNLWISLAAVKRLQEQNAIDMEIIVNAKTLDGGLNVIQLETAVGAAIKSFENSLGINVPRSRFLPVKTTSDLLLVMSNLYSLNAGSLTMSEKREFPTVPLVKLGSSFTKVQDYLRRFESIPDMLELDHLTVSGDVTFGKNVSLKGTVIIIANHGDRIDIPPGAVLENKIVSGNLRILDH
UniProt Q70CQ2: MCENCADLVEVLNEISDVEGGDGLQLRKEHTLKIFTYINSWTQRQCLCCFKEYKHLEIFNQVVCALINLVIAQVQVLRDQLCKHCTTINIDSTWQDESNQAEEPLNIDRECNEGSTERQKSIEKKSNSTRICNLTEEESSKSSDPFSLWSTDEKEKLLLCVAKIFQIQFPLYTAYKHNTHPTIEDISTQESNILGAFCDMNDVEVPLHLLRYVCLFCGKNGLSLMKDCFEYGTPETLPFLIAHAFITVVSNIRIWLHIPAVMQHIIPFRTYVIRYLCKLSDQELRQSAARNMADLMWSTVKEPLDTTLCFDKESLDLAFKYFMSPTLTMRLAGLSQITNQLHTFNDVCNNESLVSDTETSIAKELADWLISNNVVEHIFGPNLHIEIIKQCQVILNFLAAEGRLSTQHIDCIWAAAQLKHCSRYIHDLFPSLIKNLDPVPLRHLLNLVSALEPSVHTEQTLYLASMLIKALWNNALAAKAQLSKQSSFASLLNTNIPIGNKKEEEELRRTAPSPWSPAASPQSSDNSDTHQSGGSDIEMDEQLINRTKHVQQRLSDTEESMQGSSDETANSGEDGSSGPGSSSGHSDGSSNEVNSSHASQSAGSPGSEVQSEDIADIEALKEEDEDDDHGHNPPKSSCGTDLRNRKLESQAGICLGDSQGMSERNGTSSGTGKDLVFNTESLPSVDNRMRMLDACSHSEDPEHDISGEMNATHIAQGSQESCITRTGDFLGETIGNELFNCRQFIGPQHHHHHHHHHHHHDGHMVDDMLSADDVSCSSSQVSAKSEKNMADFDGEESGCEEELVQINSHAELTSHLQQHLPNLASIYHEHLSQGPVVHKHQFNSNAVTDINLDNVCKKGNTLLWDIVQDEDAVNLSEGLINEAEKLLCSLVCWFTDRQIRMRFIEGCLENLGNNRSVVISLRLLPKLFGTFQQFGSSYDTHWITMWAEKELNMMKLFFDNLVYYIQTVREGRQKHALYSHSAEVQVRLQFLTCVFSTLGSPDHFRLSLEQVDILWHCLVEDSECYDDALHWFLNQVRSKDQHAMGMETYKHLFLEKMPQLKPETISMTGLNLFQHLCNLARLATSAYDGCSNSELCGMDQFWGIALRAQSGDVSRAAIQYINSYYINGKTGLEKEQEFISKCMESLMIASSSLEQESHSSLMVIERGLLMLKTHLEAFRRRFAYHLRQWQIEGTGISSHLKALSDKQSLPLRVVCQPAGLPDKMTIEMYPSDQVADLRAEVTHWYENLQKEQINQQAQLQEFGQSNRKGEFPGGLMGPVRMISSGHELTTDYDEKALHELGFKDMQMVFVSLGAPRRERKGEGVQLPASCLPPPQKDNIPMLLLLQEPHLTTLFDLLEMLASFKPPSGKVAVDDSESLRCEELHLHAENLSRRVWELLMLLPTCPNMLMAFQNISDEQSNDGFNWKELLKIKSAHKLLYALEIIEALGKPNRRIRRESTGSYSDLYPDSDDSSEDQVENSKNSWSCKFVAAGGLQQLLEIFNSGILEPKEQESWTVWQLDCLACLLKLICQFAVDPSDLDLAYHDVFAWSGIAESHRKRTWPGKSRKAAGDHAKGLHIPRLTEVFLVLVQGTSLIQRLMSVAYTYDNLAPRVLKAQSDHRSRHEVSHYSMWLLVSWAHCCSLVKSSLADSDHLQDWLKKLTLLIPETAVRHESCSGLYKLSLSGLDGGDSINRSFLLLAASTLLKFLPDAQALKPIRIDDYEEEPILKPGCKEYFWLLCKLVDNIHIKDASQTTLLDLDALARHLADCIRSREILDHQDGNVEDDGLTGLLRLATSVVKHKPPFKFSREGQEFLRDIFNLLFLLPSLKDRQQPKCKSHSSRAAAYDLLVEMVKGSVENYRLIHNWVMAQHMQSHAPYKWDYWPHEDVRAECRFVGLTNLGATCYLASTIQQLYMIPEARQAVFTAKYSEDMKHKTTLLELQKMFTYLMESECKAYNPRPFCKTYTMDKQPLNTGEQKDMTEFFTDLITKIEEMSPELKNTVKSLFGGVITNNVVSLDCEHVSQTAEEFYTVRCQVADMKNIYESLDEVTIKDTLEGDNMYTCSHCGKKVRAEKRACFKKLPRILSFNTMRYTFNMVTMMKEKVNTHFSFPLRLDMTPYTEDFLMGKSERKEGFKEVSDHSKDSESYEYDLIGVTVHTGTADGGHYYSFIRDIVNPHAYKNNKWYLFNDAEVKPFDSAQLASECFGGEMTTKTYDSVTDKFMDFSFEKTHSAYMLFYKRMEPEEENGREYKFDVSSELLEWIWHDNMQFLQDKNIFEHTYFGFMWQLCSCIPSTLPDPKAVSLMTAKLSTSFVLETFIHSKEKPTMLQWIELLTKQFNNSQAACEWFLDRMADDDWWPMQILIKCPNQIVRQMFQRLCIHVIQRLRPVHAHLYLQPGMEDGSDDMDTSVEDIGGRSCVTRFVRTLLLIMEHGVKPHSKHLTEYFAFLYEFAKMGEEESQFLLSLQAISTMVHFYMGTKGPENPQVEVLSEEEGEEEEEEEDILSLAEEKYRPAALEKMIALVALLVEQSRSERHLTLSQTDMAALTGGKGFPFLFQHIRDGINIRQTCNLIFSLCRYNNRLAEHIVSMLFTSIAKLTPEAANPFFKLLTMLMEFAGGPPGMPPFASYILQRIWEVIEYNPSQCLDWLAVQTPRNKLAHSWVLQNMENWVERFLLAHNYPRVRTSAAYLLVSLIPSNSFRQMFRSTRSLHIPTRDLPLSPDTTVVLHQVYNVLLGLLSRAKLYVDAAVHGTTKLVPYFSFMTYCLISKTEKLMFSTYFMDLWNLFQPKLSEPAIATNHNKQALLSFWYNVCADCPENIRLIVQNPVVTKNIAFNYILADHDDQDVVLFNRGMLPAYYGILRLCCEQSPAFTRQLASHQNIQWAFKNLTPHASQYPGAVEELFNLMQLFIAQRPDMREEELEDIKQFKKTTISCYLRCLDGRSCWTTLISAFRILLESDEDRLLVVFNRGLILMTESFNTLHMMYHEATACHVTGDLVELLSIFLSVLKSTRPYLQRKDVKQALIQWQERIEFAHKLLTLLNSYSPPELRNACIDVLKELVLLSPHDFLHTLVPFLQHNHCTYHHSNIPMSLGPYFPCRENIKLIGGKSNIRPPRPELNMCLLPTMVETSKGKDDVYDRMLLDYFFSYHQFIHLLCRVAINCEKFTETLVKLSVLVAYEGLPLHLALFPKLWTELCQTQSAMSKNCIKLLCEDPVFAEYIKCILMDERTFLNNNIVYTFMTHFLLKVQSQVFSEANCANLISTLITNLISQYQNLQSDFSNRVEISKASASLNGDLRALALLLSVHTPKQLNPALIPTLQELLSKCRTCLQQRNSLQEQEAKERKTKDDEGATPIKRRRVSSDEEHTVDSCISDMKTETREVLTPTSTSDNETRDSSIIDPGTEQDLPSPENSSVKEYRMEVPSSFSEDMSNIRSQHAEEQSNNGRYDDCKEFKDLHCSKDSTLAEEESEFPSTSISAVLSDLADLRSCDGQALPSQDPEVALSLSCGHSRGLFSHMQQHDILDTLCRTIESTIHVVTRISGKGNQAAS
UniProt O94763, whole entry, looked up: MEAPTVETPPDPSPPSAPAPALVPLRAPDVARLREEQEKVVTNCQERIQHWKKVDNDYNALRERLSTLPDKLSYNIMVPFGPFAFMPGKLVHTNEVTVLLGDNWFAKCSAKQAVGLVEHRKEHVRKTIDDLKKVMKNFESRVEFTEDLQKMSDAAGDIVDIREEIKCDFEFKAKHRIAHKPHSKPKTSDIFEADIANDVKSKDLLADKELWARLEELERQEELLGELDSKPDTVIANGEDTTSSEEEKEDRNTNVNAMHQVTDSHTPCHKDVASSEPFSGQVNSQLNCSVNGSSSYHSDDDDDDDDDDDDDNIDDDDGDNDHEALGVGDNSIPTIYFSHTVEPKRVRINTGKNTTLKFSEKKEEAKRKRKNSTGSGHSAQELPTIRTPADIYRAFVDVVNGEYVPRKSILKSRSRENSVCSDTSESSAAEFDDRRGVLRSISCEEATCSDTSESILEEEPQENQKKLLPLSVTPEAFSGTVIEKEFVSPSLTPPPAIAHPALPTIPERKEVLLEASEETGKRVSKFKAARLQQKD
UniProt Q9NWZ5: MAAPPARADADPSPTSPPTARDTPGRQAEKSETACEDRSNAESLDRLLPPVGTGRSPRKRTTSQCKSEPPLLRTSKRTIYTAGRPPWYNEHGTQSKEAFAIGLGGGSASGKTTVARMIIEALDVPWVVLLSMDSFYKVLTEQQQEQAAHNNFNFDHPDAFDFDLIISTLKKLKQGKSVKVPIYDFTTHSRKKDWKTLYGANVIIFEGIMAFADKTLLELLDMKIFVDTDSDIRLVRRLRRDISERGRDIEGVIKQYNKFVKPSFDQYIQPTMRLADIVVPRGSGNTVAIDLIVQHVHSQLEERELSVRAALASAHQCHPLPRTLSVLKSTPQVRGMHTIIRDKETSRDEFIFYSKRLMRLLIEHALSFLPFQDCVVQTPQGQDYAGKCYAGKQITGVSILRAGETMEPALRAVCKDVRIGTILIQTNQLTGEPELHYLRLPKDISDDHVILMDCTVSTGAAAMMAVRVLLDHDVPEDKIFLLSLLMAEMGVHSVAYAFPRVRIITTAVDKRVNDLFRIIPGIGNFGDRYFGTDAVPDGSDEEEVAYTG

compound: Cc1ccc(NC(=O)c2ccc(CN3CC[C@H](N(C)C)C3)c(C(F)(F)F)c2)cc1Nc1nccc(-c2cncnc2)n1 [bafetinib]; assay: log2 fold change, soluble protein after heating vs DMSO (PISA); higher = thermal stabilisation; K562 lysate, 10 uM; active = over 0.2 and 3.5 SD of the protein, either way, in both replicates (recomputed)
How it was run: (§1)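 Thermal stability, expressed as log-two fold change relative to solvent controls, is given from duplicates. Crude K562 extract in PBS pH 7.4 with 1 mM MgCl2, at 1 mg/mL protein, was treated with 10 μM compound for 30 min and heated in aliquots for 3 min across 48°C-58°C. After pooling, adjustment to 0.5% NP-40 at 4°C and centrifugation at 21,000xg for 90 min, supernatant protein was measured by TMTpro 16plex LC-MS/MS with channel sums equalised.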

log2 fold change, inactive:
VDAC3 (UniProt Q9Y277) -0.022
UNC93B1 (UniProt Q9H1C4) -0.028
USP14 (UniProt P54578) -0.014
UQCR11 (UniProt O14957) -0.044
UMPS (UniProt P11172) 0.003
VAPB (UniProt O95292) 0.009
ULBP2 (UniProt Q9BZM5) -0.013
UQCC2 (UniProt Q9BRT2) 0.001
UNC45A (UniProt Q9H3U1) -0.018
USP47 isoform 4 (UniProt Q96K76) -0.034

compound: Cc1cccc(CC(=O)N2CCc3c2ccc(-c2cn(C)c4ncnc(N)c24)c3F)n1; assay: as above
How it was run: as §1

log2 fold change, inactive:
UQCRC1 (UniProt P31930) 0.017
VDAC2 (UniProt Q5JSD1) -0.144
USO1 (UniProt O60763) -0.066
ULK3 isoform 4 (UniProt Q6PHR2) 0.354
USP1 (UniProt O94782) 0.018
VCP (UniProt P55072) -0.058
USP48 (UniProt Q86UV5) 0.182
UQCRFS1 (UniProt P47985) -0.023
VASP (UniProt P50552) 0.009
UROS (UniProt P10746) 0.06
UGP2 (UniProt Q16851) -0.014
UVRAG (UniProt Q9P2Y5) -0.022
UNC5B (UniProt Q8IZJ1) -0.062
USP11 (UniProt P51784) 0.028
USP34 (UniProt Q70CQ2) 0.018
URI1 isoform 4 (UniProt O94763) 0.131
USO1 isoform 2 (UniProt O60763) 0.016
UTP18 (UniProt Q9Y5J1) -0.038
ULBP1 (UniProt Q9BZM6) 0.097
UQCRH (UniProt P07919) -0.005
UCKL1 (UniProt Q9NWZ5) 0.019
UIMC1 (UniProt Q96RL1) -0.032
UNC119B (UniProt A6NIH7) 0.022
VDAC3 (UniProt Q9Y277) 0.011
UNC93B1 (UniProt Q9H1C4) 0.226
USP14 (UniProt P54578) -0.029
UQCR11 (UniProt O14957) -0.055
UMPS (UniProt P11172) -0.004
VAPB (UniProt O95292) 0.035
ULBP2 (UniProt Q9BZM5) -0.049
UQCC2 (UniProt Q9BRT2) -0.093
UNC45A (UniProt Q9H3U1) 0.021
USP47 isoform 4 (UniProt Q96K76) -0.025
